Drawing on publication PMC8508666, this text covers binding for three molecules.

Protein sequences, listed by entry. Tags and fused reporters are not part of them.
UniProt Q9UGP8: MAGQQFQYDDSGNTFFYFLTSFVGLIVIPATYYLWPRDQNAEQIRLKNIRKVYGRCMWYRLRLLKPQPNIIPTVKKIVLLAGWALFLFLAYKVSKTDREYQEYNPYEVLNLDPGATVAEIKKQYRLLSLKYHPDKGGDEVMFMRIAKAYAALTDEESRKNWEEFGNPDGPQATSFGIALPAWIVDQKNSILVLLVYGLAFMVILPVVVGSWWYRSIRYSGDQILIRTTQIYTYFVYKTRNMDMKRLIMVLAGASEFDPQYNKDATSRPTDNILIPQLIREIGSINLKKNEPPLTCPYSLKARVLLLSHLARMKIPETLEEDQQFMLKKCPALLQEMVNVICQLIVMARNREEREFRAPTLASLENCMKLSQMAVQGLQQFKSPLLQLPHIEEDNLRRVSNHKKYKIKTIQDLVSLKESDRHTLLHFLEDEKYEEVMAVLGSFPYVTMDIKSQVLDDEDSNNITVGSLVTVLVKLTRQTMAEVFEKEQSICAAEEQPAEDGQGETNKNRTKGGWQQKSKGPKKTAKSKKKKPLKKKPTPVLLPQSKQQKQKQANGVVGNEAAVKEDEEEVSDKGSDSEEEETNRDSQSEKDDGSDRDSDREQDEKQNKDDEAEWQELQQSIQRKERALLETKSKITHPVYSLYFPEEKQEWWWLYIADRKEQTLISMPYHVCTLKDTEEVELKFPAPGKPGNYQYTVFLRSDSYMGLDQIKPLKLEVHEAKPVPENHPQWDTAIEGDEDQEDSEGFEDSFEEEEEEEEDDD
UniProt P60468: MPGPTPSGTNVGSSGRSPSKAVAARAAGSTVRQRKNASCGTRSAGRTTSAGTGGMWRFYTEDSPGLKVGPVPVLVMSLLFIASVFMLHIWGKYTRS
UniProt P61619: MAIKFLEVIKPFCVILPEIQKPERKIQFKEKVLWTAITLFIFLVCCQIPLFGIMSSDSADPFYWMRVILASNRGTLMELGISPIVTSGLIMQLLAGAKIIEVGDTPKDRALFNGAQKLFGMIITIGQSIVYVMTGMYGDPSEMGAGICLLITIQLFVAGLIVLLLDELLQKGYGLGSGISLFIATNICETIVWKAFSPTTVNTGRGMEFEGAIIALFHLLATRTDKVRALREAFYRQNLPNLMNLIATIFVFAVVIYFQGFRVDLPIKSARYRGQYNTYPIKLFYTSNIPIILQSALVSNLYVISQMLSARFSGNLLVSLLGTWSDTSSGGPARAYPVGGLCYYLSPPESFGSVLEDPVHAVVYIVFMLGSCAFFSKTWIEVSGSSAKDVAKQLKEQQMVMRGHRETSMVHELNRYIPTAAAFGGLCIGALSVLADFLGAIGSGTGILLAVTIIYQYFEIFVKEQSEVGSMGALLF

These are yes or no findings as the source states them, for the method shown. Binding seen in cells or lysates may run through a third protein. Some results given as binding are weak or reduced against the parent protein; the word gives no strength. For part of these data: Sequences can lack the tags named with a protein.

What all share (test): split reporter; BiLC with competition: living HeLa cells, triple transfection of the reporter pair with a third plasmid (CMV promoter) for an untagged partner, or empty vector as control
The target of assay [1] is Sec63, N-terminally tagged with SmBiT (UniProt Q9UGP8).
The target in assay [2] is Sec61β, N-terminally tagged with SmBiT (UniProt P60468).
Assay [3] deals with T1, TRAPβ, C-terminally tagged with SmBiT (UniProt P43308).
T1 sequence: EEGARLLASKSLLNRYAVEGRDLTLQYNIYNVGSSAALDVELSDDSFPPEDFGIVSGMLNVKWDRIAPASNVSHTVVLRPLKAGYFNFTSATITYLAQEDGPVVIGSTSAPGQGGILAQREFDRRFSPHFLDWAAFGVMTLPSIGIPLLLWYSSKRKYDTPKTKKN

In the case of “untagged Sec61β (from UniProt P60468 1-96)”, the binding result in assay [1] is “binds”.

As for “untagged Sec61α (from UniProt P61619 1-476)”, the binding entry in assay [2] is on record as “binds”.

B1: untagged TRAPα (protein, UniProt P43307 19-286)
chain: VLFRGGPRGLLAVAQDLTEDEETVEDSIIEDEDDEAEVEEDEPTDLVEDKEEEDVSGEPEASPSADTTILFVKGEDFPANNIVKFLVGFTNKGTEDFIVESLDASFRYPQDYQFYIQNFTALPLNTVVPPQRQATFEYSFIPAEPMGGRPFGLVINLNYKDLNGNVFQDAVFNQTVTVIEREDGLDGETIFMYMFLAGLGLLVIVGLHQLLESRKRKRPIQKVEMGTSSQNDVDMSWIPQETLNQINKASPRRLPRKRAQKRSVGSDE
As to B1, the binding entry in assay [3] is reported as “binds”.
